The source of these data is doi:10.1101/2024.09.04.610270.

Protein sequences, listed by entry. Tags and fused reporters are not part of them. Lines headed by an entry give the natural chain unless they say otherwise; changes in a name come on top.
UniProt Q8VYA5: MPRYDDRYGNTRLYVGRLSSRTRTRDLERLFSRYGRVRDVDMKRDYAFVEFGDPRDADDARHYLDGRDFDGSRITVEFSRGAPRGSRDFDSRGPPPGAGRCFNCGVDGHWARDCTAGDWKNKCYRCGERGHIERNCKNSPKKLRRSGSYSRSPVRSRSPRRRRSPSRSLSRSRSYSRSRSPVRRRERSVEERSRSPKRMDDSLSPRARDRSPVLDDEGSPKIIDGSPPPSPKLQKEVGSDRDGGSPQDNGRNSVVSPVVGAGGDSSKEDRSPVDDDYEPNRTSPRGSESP
UniProt Q9FYB7: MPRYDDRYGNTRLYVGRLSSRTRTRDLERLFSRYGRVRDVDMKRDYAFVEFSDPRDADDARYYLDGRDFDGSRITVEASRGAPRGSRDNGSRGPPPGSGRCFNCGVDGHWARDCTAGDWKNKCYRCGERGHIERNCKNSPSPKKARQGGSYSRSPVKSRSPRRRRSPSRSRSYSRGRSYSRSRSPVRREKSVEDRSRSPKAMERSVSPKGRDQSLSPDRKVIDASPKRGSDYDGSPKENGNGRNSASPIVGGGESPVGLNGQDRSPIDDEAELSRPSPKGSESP

What all share (test): two-hybrid
For assay [1], the target named is RS2Z33mutRRM+RS (Arabidopsis thaliana) (UniProt Q8VYA5).
Assay [2] concerns the target RS2Z32mutRS (Arabidopsis thaliana) (UniProt Q9FYB7).
In assay [3] the target is RS2Z33mutRS (Arabidopsis thaliana) (UniProt Q8VYA5).

These are yes or no findings as the source states them, for the method shown. For part of these data: Binding can be weak; no strength is given.

B1: SR34 (protein, UniProt O22315 1-303)
chain: MSSRSSRTVYVGNLPGDIREREVEDLFSKYGPVVQIDLKVPPRPPGYAFVEFDDARDAEDAIHGRDGYDFDGHRLRVELAHGGRRSSDDTRGSFNGGGRGGGRGRGDGGSRGPSRRSEFRVLVTGLPSSASWQDLKDHMRKGGDVCFSQVYRDARGTTGVVDYTCYEDMKYALKKLDDTEFRNAFSNGYVRVREYDSRKDSRSPSRGRSYSKSRSRSRGRSVSRSRSRSRSRSRSPKAKSSRRSPAKSTSRSPGPRSKSRSPSPRRSRSRSRSPLPSVQKEGSKSPSKPSPAKSPIHTRSPSR
Turning to B1, the results for the binding entry in assay [1], in assay [2] and in assay [3] were “no binding”, “no binding” and “binds”, respectively.
